Measured values taken from the supplement of paper PMC5836539.
± gives the standard deviation of the averaged measurements. Single values are uncertain here, since repeats match poorly.

The chains behind the UniProt entries cited, without tags or fusion partners. Where a name states a change or a piece, a line headed by the entry shows the natural chain unless it says otherwise.
UniProt O75396: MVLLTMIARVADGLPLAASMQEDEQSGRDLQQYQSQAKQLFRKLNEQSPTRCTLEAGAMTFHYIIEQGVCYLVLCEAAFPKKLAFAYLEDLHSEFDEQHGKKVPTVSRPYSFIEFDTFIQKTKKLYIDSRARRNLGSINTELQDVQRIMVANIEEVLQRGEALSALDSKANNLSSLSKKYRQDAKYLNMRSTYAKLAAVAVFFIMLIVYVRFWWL
UniProt O94804: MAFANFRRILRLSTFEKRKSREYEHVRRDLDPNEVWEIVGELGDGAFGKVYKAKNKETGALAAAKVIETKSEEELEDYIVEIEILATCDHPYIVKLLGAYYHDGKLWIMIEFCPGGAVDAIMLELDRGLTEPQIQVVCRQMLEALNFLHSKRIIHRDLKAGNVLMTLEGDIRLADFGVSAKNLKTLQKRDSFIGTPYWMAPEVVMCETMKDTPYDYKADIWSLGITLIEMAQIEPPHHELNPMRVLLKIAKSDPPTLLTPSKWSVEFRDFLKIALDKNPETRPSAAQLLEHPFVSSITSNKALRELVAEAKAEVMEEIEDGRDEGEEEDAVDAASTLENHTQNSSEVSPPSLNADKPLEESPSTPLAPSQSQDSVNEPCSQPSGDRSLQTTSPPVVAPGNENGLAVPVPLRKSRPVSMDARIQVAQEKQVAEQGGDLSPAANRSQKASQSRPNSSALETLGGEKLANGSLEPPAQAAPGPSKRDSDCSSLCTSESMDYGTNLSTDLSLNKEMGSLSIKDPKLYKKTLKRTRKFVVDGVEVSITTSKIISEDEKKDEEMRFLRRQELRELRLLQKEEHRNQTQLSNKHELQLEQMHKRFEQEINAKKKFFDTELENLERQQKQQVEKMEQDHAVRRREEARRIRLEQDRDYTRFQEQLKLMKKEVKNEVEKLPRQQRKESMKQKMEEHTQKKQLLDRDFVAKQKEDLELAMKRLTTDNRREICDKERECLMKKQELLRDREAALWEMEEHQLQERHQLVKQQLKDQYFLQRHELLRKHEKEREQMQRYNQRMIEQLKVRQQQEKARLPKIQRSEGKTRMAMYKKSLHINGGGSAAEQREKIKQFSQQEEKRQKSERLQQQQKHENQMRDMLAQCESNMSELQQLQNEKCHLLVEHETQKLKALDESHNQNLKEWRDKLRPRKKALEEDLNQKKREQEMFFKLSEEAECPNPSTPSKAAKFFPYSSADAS
UniProt O94826, whole entry: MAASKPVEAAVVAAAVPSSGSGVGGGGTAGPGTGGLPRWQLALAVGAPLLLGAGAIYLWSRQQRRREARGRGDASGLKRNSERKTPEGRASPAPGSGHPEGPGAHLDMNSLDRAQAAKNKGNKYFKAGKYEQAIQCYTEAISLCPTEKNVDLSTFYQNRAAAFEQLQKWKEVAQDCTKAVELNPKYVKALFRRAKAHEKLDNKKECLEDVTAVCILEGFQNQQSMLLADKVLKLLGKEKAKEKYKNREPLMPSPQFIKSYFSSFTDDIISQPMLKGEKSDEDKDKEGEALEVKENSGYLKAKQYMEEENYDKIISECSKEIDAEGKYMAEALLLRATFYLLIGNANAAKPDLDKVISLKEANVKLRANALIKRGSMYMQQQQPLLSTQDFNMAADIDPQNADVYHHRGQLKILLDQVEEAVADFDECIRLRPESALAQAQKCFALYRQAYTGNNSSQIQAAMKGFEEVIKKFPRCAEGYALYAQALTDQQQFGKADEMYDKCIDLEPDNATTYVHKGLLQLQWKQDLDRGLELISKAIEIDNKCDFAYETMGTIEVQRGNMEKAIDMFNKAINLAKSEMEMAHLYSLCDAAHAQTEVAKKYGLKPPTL
UniProt O94880: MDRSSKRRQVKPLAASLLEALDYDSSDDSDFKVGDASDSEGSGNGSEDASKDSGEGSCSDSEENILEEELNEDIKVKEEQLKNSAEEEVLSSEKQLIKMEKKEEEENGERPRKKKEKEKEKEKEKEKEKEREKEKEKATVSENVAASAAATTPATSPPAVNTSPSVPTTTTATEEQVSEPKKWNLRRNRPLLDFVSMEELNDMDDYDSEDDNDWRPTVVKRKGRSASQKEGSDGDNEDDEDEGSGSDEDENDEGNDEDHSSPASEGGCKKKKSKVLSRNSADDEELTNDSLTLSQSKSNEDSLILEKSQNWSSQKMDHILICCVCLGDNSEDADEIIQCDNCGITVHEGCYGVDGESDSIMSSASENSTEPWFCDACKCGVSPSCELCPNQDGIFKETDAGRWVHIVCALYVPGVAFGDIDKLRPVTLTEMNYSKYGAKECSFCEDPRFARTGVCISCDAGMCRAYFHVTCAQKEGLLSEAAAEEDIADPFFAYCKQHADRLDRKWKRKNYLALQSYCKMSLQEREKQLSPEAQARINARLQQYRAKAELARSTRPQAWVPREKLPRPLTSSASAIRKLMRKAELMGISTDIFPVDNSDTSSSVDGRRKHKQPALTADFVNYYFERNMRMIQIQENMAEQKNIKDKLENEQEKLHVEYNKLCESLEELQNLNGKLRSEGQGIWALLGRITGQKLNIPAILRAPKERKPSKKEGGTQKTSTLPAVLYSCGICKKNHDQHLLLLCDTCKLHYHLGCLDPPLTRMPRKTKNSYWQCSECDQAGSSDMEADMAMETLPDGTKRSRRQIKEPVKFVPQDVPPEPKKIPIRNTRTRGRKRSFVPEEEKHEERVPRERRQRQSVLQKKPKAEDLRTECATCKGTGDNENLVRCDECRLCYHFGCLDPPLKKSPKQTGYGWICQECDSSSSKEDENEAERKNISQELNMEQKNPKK
UniProt P05771, whole entry, looked up: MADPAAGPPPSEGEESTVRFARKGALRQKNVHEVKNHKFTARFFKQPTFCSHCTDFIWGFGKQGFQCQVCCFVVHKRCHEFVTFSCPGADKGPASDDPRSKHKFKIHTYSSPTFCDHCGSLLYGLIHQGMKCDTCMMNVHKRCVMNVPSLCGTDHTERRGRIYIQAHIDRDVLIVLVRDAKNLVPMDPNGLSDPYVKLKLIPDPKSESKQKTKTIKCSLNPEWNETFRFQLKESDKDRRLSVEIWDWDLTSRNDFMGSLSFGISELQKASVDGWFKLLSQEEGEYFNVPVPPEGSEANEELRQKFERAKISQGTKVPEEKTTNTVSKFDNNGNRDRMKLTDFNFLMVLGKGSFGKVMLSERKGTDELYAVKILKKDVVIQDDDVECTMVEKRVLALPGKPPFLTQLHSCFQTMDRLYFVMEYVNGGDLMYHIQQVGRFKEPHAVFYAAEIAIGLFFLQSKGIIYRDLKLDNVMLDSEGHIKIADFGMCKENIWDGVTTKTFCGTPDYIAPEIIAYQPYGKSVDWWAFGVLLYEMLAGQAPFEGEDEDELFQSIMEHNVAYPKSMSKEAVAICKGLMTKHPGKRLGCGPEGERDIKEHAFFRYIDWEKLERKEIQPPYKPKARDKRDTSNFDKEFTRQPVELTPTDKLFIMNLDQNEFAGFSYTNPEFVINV
UniProt P08559, whole entry, looked up: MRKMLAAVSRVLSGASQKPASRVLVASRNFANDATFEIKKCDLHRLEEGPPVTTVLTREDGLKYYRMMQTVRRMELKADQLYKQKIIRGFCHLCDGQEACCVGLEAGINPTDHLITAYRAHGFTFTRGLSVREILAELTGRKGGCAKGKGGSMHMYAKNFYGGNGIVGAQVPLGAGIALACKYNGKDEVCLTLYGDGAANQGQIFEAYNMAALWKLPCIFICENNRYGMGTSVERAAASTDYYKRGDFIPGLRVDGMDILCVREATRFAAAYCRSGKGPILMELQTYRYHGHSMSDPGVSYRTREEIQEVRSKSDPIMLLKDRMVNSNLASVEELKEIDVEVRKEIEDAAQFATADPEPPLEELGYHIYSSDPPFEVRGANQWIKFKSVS
UniProt P16383: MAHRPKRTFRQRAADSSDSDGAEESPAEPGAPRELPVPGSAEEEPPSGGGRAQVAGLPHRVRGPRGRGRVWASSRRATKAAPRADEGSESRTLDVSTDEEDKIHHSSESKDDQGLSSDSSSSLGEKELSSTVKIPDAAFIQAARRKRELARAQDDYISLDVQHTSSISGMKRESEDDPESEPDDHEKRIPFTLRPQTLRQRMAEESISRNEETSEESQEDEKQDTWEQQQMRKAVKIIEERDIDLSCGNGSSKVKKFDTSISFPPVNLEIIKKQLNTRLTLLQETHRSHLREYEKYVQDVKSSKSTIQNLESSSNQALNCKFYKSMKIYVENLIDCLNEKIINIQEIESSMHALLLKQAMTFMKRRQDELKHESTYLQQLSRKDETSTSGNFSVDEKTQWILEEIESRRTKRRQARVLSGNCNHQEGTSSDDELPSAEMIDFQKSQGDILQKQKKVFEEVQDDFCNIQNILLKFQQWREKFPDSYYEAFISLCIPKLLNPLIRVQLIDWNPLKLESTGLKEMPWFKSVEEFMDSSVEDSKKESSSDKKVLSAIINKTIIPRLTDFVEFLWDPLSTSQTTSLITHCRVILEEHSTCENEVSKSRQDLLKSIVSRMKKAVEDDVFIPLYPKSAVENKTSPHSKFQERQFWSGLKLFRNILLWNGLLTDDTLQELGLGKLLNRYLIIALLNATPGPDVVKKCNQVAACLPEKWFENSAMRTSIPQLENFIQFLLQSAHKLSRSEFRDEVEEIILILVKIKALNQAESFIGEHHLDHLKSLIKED
UniProt P18615, whole entry: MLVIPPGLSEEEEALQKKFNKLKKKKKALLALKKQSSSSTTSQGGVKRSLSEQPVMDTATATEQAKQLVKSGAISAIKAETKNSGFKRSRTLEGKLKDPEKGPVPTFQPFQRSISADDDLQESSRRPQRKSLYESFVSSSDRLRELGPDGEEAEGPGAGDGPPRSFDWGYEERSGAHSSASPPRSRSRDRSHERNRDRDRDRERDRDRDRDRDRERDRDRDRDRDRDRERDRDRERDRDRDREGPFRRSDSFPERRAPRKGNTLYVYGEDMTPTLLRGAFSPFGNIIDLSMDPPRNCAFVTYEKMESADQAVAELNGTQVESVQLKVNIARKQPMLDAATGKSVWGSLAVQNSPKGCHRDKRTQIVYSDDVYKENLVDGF

Compound: CC[C@@H](C)Nc1cc(C(=O)N[C@H]2C[C@H]3CC[C@@H](C2)N3c2ccc(C(=O)C3CC3)cn2)c(C)cc1C(N)=O [XL888]
Test: phosphopeptide melting temperature shift (XL888 minus DMSO); higher = stabilised by drug treatment
Conditions: 100 µM; treatment time 2 h; layout: intact cells; SK-Mel 28
Method: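 Phospho-TPP in intact SK-Mel 28 cells treated with 100 uM XL888 or DMSO for 2 h, heated at 10 temperatures (37-67 C) for 3 min, soluble fraction TMT10plex-labelled and TiO2 phospho-enriched. Melting curves were fitted per phosphopeptide; the value is the melting point difference (drug minus vehicle) in each of two biological replicates.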

Row | Target | phosphopeptide melting temperature shift [°C]
1 | UniProt O75396_phosphosite_137 (phosphosite position: 137) | -0.847
2 | UniProt O75410-3_phosphosite_81 (phosphosite position: 81) | 3.99 ± 0.58
3 | UniProt O75494-2_phosphosite_155 (phosphosite position: 155) | 6.38
4 | UniProt O75494-2_phosphosite_157 (phosphosite position: 157) | 6.38
5 | UniProt O75592-2_phosphosite_2645 (phosphosite position: 2645) | 1.96 ± 0.55
6 | UniProt O75592-2_phosphosite_2649 (phosphosite position: 2649) | 1.96 ± 0.55
7 | UniProt O75674-3_phosphosite_246 (phosphosite position: 246) | 1.95 ± 0.99
8 | UniProt O75717-2_phosphosite_284 (phosphosite position: 284) | 1.65 ± 1
9 | UniProt O75717-2_phosphosite_745 (phosphosite position: 745) | 0.684
10 | UniProt O75909-1_phosphosite_329 (phosphosite position: 329) | 1.19 ± 0.043
11 | UniProt O75909-1_phosphosite_340 (phosphosite position: 340) | -0.0318
12 | UniProt O76094-2_phosphosite_560 (phosphosite position: 560) | 2.24 ± 0.66
13 | UniProt O94804_phosphosite_13 (phosphosite position: 13) | 0.194 ± 0.19
14 | UniProt O94804_phosphosite_20 (phosphosite position: 20) | 1.21
15 | UniProt O94804_phosphosite_191 (phosphosite position: 191) | 1.97 ± 0.26
16 | UniProt O94804_phosphosite_438 (phosphosite position: 438) | 2 ± 2
17 | UniProt O94804_phosphosite_514 (phosphosite position: 514) | 1.32 ± 0.94
18 | UniProt O94826_phosphosite_91 (phosphosite position: 91) | 1.09 ± 0.34
19 | UniProt O94842-3_phosphosite_152 (phosphosite position: 152) | 0.478

Row | Target | phosphopeptide melting temperature shift [°C]
20 | UniProt O94842-3_phosphosite_156 (phosphosite position: 156) | 0.478
21 | UniProt O94854-2_phosphosite_666 (phosphosite position: 666) | 0.84 ± 1
22 | UniProt O94864-2_phosphosite_106 (phosphosite position: 106) | -0.495
23 | UniProt O94874-2_phosphosite_393 (phosphosite position: 393) | 0.861 ± 0.83
24 | UniProt O94880_phosphosite_208 (phosphosite position: 208) | -1.18
25 | UniProt O94929-2_phosphosite_311 (phosphosite position: 311) | 2.99 ± 2
26 | UniProt O94979-3_phosphosite_532 (phosphosite position: 532) | 0.822 ± 2
27 | UniProt O94979-3_phosphosite_1049 (phosphosite position: 1049) | 3.71
28 | UniProt O95104-2_phosphosite_154 (phosphosite position: 154) | -1.25
29 | UniProt O95218-2_phosphosite_193 (phosphosite position: 193) | 0.912
30 | UniProt O95359-2_phosphosite_21 (phosphosite position: 21) | 1.69
31 | UniProt O95359-2_phosphosite_25 (phosphosite position: 25) | 1.69
32 | UniProt O95453-2_phosphosite_558 (phosphosite position: 558) | 0.374 ± 0.43
33 | UniProt O95628-3_phosphosite_415 (phosphosite position: 415) | 0.835
34 | UniProt O95819-2_phosphosite_608 (phosphosite position: 608) | 0.253
35 | UniProt O95819-2_phosphosite_872 (phosphosite position: 872) | -0.382
36 | UniProt P05771-2_phosphosite_641 (phosphosite position: 641) | -0.509
37 | UniProt P07910-2_phosphosite_240 (phosphosite position: 240) | 5.01
38 | UniProt P07910-2_phosphosite_247 (phosphosite position: 247) | 5.31

Row | Target | phosphopeptide melting temperature shift [°C]
39 | UniProt P08559-3_phosphosite_201 (phosphosite position: 201) | 0.935
40 | UniProt P08559-3_phosphosite_269 (phosphosite position: 269) | -0.422
41 | UniProt P11137-3_phosphosite_281 (phosphosite position: 281) | 2.42 ± 3.1
42 | UniProt P11137-3_phosphosite_1786 (phosphosite position: 1786) | 6.3 ± 0.54
43 | UniProt P11274-2_phosphosite_459 (phosphosite position: 459) | 1.28 ± 0.27
44 | UniProt P13807-2_phosphosite_577 (phosphosite position: 577) | -1.43 ± 0.44
45 | UniProt P13807-2_phosphosite_581 (phosphosite position: 581) | 2.19 ± 1.1
46 | UniProt P13807-2_phosphosite_589 (phosphosite position: 589) | -0.644
47 | UniProt P13807-2_phosphosite_593 (phosphosite position: 593) | 1.1 ± 1.1
48 | UniProt P15923-2_phosphosite_379 (phosphosite position: 379) | 0.257
49 | UniProt P16383_phosphosite_174 (phosphosite position: 174) | 0.606 ± 1.4
50 | UniProt P16383_phosphosite_428 (phosphosite position: 428) | -1.14
51 | UniProt P16383_phosphosite_429 (phosphosite position: 429) | -1.14
52 | UniProt P16383_phosphosite_430 (phosphosite position: 430) | -1.14
53 | UniProt P17612_phosphosite_339 (phosphosite position: 339) | 0.327 ± 0.12
54 | UniProt P17706-3_phosphosite_304 (phosphosite position: 304) | -0.567
55 | UniProt P18206-2_phosphosite_822 (phosphosite position: 822) | -1.24
56 | UniProt P18583-2_phosphosite_1810 (phosphosite position: 1810) | 6.79
57 | UniProt P18615_phosphosite_181 (phosphosite position: 181) | 1.56

Part of the list above in a different format:
UniProt O94979-3_phosphosite_532 (phosphosite position: 532)
  phosphopeptide melting temperature shift [°C]: 0.822 ± 2
UniProt O94979-3_phosphosite_1049 (phosphosite position: 1049)
  phosphopeptide melting temperature shift [°C]: 3.71
